Test results reported in US20050130265A1.
These are yes or no findings as the source states them, for the method shown. Some binding calls cover weakened binding; strength is not graded here. Where a sequence is shown, tags or fusion partners need not be part of it. One block for each binder: values may come before it.

Key:
[1] = molecular target: Aio-500 bait (C-terminal 149 amino acids of Aiolos fused in frame to the LexA DNA binding domain in pLex202) (mouse); assay: yeast two-hybrid
[2] = molecular target: Aio-500 bait (C-terminal 149 amino acids of Aiolos fused in frame to the LexA DNA binding domain in pLex202) (mouse); assay: yeast two-hybrid, B42 prey against LexA bait, rate of blue colour on X-gal plates

binding [1]: binds
binding [2]: binds
B1: Aio-500 prey (B42 transcriptional activation domain fused to the C-terminal 149 amino acids of Aiolos) (protein, not shown: large carriers)
chain: EKKRILLPEKILPSERGLSPNNSAQDSTDTDSNHEDRQHLYQQSHVVLPQARNGMPLLKEVPRSFELLKPPPICLRDSIKVINKEGEVMDVFRCDHCHVLFLDYVMFTIHMGCHGFRDPFECNMCGYRSHDRYEFSSHIARGEHRAMLK

binding [1]: binds
binding [2]: binds
B2: Aio-800 prey (B42 transcriptional activation domain fused to the entire coding sequence of the C-terminal exon of Aiolos) (protein, not shown: large carriers)
chain: EKRHCFDANYNPGYMYEKENEMMQTRMMDQAINNAISYLGAEAFRPLVQTPPAPTSEMVPVISSVYPIALTRADMPMGAPQEMEKKRILLPEKILPSERGLSPNNSAQDSTDTDSNHEDRQHLYQQSHVVLPQARNGMPLLKEVPRSFELLKPPPICLRDSIKVINKEGEVMDVFRCDHCHVLFLDYVMFTIHMGCHGFRDPFECNMCGYRSHDRYEFSSHIARGEHRAMLK
